Measured values published in publication PMC7105466.
These are yes or no findings as the source states them, for the method shown. In cells and extracts the contact can be indirect. Some entries that bind do so weakly or less than the wild type. Blank lines part the entries; values can stand above or below the substance they belong to.

Sequences of proteins named here, by UniProt entry; tags and fusion partners are left off. Residues count along the entry.
UniProt Q9Y5G4, residues 29-932: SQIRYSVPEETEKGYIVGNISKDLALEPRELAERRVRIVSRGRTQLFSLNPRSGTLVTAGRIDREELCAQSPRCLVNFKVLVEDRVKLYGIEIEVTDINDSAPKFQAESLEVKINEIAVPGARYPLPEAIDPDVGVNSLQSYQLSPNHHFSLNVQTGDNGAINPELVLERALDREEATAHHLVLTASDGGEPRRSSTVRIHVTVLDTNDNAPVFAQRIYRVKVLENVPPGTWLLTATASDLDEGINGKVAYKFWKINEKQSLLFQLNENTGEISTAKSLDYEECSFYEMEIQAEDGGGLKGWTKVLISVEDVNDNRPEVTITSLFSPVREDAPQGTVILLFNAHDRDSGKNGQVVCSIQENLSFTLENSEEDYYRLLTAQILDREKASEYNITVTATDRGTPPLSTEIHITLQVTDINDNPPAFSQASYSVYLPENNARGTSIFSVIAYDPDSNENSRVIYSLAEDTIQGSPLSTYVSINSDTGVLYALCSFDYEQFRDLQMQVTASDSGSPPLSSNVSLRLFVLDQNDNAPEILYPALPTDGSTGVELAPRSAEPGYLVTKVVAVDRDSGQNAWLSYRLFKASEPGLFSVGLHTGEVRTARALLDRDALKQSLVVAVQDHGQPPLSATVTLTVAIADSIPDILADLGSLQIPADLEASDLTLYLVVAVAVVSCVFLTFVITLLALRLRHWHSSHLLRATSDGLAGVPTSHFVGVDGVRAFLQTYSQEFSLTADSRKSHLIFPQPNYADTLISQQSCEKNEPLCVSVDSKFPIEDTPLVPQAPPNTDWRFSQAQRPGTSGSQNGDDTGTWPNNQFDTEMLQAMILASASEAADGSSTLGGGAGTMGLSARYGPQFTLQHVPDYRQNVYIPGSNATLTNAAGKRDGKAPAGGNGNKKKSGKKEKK
UniProt P35222: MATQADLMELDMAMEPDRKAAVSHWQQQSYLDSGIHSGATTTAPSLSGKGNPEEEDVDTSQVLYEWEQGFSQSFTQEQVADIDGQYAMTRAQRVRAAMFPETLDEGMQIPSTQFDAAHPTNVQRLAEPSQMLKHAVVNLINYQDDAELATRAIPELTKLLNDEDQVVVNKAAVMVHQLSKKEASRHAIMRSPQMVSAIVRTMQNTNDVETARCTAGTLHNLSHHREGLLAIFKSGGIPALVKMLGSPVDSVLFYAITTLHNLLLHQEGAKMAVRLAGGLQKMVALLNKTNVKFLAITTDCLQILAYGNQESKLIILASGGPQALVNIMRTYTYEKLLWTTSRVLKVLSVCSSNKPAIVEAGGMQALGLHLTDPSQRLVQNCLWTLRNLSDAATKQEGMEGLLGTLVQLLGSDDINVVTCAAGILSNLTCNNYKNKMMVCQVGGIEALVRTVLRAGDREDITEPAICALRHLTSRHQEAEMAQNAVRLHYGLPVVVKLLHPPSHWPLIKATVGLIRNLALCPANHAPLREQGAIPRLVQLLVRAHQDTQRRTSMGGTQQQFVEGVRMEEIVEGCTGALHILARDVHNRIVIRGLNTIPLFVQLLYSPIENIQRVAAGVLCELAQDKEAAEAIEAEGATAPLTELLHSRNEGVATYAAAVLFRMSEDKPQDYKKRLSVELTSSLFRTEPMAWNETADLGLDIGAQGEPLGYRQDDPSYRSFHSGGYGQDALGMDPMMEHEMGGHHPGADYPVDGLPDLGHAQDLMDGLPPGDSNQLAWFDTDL

Columns and labels:
[1] = target: PCDHGA9 (3×Flag-hPCDHGA9), expressed in 293T cells (human) (UniProt Q9Y5G4); assay: co-IP; exogenous co-IP in 293T cells; RIPA lysates precipitated with the indicated antibodies on protein A/G beads overnight, western blot; both orientations
[2] = target: PCDHGA9, ectopically expressed in SGC-7901 cells (SGC-7901-PCDHGA9) (human) (UniProt Q9Y5G4); assay: co-IP; immunoprecipitation of β-catenin with PCDHGA9 from PCDHGA9-overexpressing SGC-7901 and negative control cells, western blot; cells with or without 10 ng/ml TGF-β1 for 48 h
[3] = target: PCDHGA9, endogenous in SGC-7901 negative control cells (human (endogenous in SGC-7901)) (UniProt Q9Y5G4); assay: as above
[4] = target: β-catenin (pHis-CMV4-hβ-catenin), expressed in 293T cells (human) (UniProt P35222); assay: co-IP; exogenous co-IP in 293T cells; RIPA lysates precipitated with the indicated antibodies on protein A/G beads overnight, western blot; both orientations

- binding [1]: binds
Substance: β-catenin (pHis-CMV4-hβ-catenin), expressed in 293T cells (from UniProt P35222 1-781)

- binding [2]: binds
- binding [3]: binds
Substance: β-catenin, endogenous in SGC-7901 cells (from UniProt P35222 1-781)

- binding [4]: binds
Substance: PCDHGA9 (3×Flag-hPCDHGA9), expressed in 293T cells (from UniProt Q9Y5G4 29-932)
